This is one part of the list.
Compound: Cc1ccc(C(=O)N(CCCN)[C@@H](c2nc3cc(Cl)ccc3c(=O)n2Cc2ccccc2)C(C)C)cc1 [ispinesib]
Assay: log2 fold change, soluble protein after heating vs DMSO (PISA); higher = thermal stabilisation; K562 cells, 10 uM, 30 min; active = over 0.2 and 3.5 SD of the protein, either way, in both replicates (recomputed)
How it was run: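 Quantification of soluble protein used TMTpro 16plex LC-MS/MS, with channel sums equalised. Samples were the supernatant after 21,000xg for 90 min of pooled aliquots from K562 cells (2×10^6 cells/mL) treated with 10 μM compound for 30 min, heated for 3 min over 48°C-58°C, and extracted in PBS with 0.5% NP-40 at 4°C. Values, from duplicates, describe thermal stability against control samples on a log2 fold-change scale.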

By UniProt entry, the sequences of proteins in these tests, tags left out. Where a name states a change or a piece, a line headed by the entry shows the natural chain unless it says otherwise.
UniProt P17028: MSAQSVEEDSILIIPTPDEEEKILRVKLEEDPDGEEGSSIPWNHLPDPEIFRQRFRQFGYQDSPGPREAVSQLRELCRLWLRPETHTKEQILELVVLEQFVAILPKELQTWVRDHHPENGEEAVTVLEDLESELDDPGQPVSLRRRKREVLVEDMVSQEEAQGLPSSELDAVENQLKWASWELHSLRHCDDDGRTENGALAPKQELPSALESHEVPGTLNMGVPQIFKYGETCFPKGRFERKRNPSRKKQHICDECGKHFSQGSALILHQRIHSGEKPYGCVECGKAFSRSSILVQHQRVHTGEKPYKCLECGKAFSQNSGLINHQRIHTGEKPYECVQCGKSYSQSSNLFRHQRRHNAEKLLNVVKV
UniProt Q96TA2: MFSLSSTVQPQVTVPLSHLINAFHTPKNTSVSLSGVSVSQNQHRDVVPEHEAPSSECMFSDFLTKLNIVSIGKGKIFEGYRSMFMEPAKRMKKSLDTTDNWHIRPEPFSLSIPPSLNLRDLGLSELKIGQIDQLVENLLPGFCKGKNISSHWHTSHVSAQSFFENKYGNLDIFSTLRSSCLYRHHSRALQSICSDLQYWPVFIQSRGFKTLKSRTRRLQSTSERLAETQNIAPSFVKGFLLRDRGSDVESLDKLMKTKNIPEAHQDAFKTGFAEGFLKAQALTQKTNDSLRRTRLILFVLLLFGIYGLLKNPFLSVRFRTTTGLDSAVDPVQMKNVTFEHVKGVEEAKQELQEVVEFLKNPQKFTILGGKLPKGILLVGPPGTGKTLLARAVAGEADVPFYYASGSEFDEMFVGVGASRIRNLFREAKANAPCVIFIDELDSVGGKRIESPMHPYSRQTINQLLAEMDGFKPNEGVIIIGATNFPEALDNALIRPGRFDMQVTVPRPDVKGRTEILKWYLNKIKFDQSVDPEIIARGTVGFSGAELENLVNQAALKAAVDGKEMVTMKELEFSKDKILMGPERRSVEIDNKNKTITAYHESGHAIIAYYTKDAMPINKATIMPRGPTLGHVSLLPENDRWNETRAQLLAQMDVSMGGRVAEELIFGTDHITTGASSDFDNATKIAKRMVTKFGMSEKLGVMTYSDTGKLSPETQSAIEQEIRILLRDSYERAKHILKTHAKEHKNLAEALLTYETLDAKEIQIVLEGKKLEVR
UniProt Q5BJH7: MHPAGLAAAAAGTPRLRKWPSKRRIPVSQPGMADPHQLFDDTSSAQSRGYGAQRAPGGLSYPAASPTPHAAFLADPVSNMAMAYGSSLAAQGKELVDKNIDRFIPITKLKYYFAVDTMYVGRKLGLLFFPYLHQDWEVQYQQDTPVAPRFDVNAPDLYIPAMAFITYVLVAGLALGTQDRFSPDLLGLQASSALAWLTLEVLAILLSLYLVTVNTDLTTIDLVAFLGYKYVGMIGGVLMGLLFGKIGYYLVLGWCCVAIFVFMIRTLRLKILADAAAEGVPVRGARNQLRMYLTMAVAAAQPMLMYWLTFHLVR
UniProt Q04917: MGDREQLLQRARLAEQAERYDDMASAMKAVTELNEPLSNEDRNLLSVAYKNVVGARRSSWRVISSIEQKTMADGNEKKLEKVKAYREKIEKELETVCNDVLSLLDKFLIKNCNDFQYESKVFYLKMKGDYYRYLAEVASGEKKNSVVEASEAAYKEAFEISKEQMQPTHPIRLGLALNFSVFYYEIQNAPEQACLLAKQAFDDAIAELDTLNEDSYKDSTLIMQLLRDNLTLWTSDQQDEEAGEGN
UniProt O15498: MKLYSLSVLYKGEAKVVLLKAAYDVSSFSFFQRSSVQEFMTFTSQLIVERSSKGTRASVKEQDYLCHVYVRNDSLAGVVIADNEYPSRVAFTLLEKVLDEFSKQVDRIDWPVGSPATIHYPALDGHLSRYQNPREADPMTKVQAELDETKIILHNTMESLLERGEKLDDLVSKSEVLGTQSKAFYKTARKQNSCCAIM
UniProt Q7Z3T8: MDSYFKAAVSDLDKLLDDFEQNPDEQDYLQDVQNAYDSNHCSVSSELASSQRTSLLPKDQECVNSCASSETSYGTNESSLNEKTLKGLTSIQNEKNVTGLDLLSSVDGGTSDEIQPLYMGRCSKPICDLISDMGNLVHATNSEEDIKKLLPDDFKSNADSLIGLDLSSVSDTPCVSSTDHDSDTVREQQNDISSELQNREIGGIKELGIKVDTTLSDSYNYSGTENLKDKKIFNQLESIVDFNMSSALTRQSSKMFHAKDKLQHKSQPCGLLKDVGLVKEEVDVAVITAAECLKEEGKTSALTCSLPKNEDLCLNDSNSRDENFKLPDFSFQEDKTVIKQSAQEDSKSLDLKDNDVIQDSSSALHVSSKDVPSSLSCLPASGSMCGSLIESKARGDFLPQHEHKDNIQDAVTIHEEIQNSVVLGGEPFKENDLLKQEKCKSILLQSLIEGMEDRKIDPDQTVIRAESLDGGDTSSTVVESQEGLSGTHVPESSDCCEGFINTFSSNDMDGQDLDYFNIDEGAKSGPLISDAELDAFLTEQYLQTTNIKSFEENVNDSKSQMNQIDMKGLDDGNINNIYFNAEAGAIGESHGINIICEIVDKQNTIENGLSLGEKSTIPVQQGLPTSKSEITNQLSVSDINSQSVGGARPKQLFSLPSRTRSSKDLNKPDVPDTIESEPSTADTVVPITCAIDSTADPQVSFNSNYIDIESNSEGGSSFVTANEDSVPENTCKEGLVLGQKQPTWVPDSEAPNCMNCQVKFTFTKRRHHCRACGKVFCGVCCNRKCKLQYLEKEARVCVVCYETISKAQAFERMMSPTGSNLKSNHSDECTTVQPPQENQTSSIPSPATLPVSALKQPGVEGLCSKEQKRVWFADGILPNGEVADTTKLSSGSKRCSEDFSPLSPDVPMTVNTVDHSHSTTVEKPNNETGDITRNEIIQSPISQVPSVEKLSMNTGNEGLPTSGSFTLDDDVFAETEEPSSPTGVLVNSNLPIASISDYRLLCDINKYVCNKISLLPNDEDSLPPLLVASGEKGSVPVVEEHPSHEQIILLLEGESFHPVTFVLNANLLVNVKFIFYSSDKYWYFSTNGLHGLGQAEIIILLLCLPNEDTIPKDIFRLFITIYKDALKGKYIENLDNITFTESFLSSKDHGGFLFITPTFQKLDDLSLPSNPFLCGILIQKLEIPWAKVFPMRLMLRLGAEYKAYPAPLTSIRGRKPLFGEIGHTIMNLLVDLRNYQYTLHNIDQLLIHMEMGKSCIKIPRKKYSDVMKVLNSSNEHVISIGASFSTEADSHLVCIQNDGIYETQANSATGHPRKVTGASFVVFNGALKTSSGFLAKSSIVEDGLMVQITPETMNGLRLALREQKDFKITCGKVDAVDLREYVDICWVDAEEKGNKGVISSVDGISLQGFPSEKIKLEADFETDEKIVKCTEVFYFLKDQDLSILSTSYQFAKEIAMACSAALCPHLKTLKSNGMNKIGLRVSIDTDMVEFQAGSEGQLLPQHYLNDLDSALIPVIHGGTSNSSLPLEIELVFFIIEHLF
UniProt Q9UPT8: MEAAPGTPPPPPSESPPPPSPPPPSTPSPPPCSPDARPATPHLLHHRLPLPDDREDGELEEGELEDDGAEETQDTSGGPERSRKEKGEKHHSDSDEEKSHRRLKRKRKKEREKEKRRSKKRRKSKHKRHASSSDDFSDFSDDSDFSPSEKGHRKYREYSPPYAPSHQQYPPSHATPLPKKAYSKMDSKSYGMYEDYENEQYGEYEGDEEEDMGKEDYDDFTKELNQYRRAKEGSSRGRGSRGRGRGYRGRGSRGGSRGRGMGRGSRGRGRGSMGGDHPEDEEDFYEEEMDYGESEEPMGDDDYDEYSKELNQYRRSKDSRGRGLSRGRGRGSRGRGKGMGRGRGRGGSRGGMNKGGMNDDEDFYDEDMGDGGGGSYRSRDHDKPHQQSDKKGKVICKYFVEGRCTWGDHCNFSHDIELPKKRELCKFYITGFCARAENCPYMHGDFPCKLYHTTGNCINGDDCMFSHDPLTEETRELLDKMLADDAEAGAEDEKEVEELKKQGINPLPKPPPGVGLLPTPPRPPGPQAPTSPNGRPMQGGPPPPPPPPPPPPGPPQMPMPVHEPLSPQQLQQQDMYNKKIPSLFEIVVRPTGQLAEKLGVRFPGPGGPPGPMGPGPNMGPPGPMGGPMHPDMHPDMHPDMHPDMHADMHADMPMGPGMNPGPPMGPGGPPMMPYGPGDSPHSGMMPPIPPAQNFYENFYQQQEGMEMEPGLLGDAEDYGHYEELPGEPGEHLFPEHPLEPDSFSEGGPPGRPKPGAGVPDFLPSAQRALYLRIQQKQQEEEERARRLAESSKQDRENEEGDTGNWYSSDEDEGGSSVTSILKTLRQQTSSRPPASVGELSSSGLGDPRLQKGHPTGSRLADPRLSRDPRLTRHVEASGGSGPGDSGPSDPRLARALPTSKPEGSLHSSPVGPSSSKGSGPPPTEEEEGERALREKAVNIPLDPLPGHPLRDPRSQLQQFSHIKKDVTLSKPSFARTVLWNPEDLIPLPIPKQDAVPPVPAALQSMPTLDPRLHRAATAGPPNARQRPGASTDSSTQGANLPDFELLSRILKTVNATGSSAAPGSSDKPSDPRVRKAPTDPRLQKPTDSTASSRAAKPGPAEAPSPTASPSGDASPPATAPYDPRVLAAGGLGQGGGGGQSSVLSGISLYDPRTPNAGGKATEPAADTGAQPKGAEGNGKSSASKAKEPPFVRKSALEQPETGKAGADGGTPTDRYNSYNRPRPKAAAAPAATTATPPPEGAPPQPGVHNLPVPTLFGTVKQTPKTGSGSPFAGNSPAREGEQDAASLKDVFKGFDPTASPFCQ
UniProt Q7Z2W4: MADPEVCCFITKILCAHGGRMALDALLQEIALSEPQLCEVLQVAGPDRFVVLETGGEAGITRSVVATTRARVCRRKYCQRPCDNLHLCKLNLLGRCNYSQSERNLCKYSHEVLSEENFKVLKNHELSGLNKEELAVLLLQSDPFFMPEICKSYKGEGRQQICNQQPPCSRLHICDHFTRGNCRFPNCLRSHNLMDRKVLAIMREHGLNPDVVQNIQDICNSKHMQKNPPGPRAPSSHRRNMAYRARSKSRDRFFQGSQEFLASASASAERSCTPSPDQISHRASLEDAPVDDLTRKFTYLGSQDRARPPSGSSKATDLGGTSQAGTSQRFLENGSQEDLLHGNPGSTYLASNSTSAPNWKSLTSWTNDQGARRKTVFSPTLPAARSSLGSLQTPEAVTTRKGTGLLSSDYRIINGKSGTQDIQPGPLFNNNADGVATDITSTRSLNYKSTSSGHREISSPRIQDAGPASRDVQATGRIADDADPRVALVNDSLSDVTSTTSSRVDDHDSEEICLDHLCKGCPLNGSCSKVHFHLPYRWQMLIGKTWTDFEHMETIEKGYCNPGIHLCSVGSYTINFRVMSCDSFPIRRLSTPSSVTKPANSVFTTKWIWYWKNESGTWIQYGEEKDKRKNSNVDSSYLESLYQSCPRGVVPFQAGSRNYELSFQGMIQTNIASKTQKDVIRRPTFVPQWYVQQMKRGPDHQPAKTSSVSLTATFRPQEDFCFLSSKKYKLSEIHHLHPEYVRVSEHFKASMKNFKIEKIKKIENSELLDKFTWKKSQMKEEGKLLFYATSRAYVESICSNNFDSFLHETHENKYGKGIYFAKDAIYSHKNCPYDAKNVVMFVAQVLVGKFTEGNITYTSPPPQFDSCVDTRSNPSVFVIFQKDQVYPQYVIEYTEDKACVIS
UniProt Q9GZM5: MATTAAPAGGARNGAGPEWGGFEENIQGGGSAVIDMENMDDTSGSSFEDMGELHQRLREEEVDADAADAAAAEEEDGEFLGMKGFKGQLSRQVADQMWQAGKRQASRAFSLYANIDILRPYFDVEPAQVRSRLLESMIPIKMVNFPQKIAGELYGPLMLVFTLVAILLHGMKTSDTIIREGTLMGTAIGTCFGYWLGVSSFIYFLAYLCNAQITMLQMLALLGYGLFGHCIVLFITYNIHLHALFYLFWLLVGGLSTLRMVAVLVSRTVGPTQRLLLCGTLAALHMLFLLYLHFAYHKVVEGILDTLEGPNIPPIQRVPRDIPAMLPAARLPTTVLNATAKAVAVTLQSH
UniProt P54577: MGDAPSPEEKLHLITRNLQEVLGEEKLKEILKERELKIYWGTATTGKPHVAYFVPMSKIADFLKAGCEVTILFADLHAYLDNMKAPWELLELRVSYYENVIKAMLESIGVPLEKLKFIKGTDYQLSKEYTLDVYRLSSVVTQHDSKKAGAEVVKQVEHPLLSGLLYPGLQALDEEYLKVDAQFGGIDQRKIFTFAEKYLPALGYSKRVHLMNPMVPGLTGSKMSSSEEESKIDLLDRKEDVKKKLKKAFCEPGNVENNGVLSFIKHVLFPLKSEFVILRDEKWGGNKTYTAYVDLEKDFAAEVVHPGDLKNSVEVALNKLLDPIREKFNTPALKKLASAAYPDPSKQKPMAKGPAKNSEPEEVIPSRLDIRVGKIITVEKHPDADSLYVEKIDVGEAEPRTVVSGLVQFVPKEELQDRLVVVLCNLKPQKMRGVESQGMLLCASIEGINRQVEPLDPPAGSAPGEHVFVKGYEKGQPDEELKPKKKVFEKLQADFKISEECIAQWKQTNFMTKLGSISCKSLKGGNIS

| Target | log2 fold change |
| --- | --- |
| ZNF24 (UniProt P17028) | inactive: -0.471 |
| ZFAND2B (UniProt Q8WV99) | inactive: -0.005 |
| YME1L1 (UniProt Q96TA2) | inactive: -0.139 |
| YIF1B (UniProt Q5BJH7) | inactive: -0.132 |
| YEATS4 (UniProt O95619) | inactive: 0.085 |
| YWHAH (UniProt Q04917) | inactive: 0.09 |
| YKT6 (UniProt O15498) | inactive: 0.086 |
| YTHDF2 (UniProt Q9Y5A9) | inactive: -0.081 |
| ZCCHC3 (UniProt Q9NUD5) | inactive: -0.082 |
| YJU2 (UniProt Q9BW85) | inactive: 0.05 |
| ZFYVE16 (UniProt Q7Z3T8) | inactive: -0.035 |
| ZFYVE19 (UniProt Q96K21) | inactive: -0.023 |
| YWHAE (UniProt P62258) | inactive: -0.013 |
| ZDHHC18 (UniProt Q9NUE0) | inactive: -0.26 |
| ZFYVE27 isoform 2 (UniProt Q5T4F4) | inactive: 0.032 |
| YARS2 (UniProt Q9Y2Z4) | inactive: 0.006 |
| YWHAG (UniProt P61981) | inactive: 0.09 |

Individual results from the results shown:
log2 fold change with YWHAH (UniProt Q04917) is entered as inactive: 0.09
log2 fold change with YTHDF2 (UniProt Q9Y5A9) is entered as inactive: -0.081

More records follow:

| Target | log2 fold change |
| --- | --- |
| ZCCHC8 (UniProt Q6NZY4) | inactive: 0.022 |
| ZBTB8OS (UniProt Q8IWT0) | inactive: 0.054 |
| ZC3H4 (UniProt Q9UPT8) | inactive: -0.062 |
| XPR1 (UniProt Q9UBH6) | inactive: -0.001 |
| XPO7 (UniProt E7ESC6) | inactive: 0.023 |
| XRN2 (UniProt Q9H0D6) | inactive: -0.009 |
| ZC3HAV1 (UniProt Q7Z2W4) | inactive: -0.334 |
| YTHDF3 (UniProt Q7Z739) | inactive: -0.041 |
| YDJC (UniProt A8MPS7) | inactive: 0.083 |
| YIPF3 (UniProt Q9GZM5) | inactive: 0.055 |
| XXYLT1 (UniProt Q8NBI6) | inactive: 0.002 |
| ZFR (UniProt Q96KR1) | inactive: 0.043 |
| YARS (UniProt P54577) | inactive: -0.115 |
| ZFYVE1 (UniProt Q9HBF4) | inactive: -0.071 |
| XPO4 (UniProt Q9C0E2) | inactive: -0.009 |
| YRDC (UniProt Q86U90) | inactive: -0.005 |
| ZNF148 (UniProt Q9UQR1) | inactive: -0.111 |

Source: the supplement of paper PMC10849652
